Source: doi:10.1101/2025.11.26.690747
These are yes or no findings as the source states them, for the method shown. In cells and extracts the contact can be indirect. Binding can be weak; no strength is given. Tags and fused reporters may be left off the sequences shown.

Target: T1, PfBDP1-HA-DD (P. falciparum) (UniProt Q8IJ72)
T1 sequence: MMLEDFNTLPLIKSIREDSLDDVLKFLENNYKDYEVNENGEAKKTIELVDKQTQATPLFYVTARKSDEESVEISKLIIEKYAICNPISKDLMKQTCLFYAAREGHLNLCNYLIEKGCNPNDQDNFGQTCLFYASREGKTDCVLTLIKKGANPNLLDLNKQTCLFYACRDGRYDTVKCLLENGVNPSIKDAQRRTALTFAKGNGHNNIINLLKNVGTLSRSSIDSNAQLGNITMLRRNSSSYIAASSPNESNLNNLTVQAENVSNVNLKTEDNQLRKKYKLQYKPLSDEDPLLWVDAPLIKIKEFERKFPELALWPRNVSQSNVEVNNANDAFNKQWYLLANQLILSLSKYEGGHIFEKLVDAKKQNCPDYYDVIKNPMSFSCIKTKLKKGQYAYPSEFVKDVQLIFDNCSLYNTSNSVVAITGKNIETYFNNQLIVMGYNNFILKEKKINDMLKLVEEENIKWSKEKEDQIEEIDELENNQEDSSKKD
Assay: co-IP

PfAP2-I-GFP (P. falciparum)
binding: binds
